At least one structure is not confirmed: it was looked up by name or label, or the drawing left a doubt.
Assay: pharmacokinetics of 4-hydroxy tamoxifen gel in healthy premenopausal women (Example 3)
Assay type: in vivo, human
Conditions: after the second cycle

CCC(=C(c1ccc(O)cc1)c1ccc(OCCN(C)C)cc1)c1ccccc1 [4-hydroxy tamoxifen, 1-[4-(2-N-dimethylaminoethoxy)phenyl]-1-(4-hydroxyphenyl)-2-phenylbut-1-ene]
Plasma concentration of 4-hydroxy tamoxifen, Range (1 mg/day, gel 20 mg/100 g, +8 days): (<LOQ-17.4)
Plasma concentration of 4-hydroxy tamoxifen, Range (1 mg/day, gel 20 mg/100 g, +12 days): (<LOQ-7.0)
Plasma concentration of 4-hydroxy tamoxifen, Range (1 mg/day, gel 57 mg/100 g, +12 days): (0-<LOQ)
Plasma concentration of 4-hydroxy tamoxifen, Range (1 mg/day, gel 57 mg/100 g, +20 days): (0-<LOQ)
Plasma concentration of 4-hydroxy tamoxifen, Range (2 mg/day, gel 57 mg/100 g, +20 days): (0-<LOQ)

— US8048927B2 (Besins Healthcare Luxembourg, priority 2004, dated 2011)
